# Primary screen of a compound library

T. brucei: 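Whole-parasite assay of Trypanosoma brucei over 72 hours; the read-out is not stated. Concentration: 30 µM. The record gives no direction; compounds that gave an IC50 in retests scored well above the rest, so higher reads as stronger inhibition. Values scatter widely below zero; nearly all retest evidence comes from the higher of the two concentrations used. About 64,000 compounds were tested under these conditions; 1.5% (about 940) showed 50% or more at least once.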
Toxoplasma: 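Assay of Toxoplasma gondii numbers, read through their beta-galactosidase reporter with a colour substrate. Concentration: 10 µM. The record gives no direction; the compounds picked for IC50 retests had high values, so higher reads as fewer parasites. Of about 67,000 compounds tested this way, about 260 (0.38%) reached 50% or more in at least one test.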
Leishmania in macrophages: 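Cell assay of Leishmania donovani living inside macrophages; the read-out is not stated. Compounds at 30 µM. The record gives no direction; compounds that gave an IC50 in retests scored well above the rest, so higher reads as stronger inhibition. About 69,000 compounds were tested under these conditions; 1.5% (about 1,000) showed 50% or more at least once.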

Values are the deposited “Percent Effect”, in %.
The controls that fix the scale are not given in the record; negative values are as filed.
Compounds were drawn at random from those tested, without regard to their results.
Two or more numbers in one place are separate tests of the same structure; such repeats can differ widely.
A dash means the value is not listed here; it may have been measured.

| compound | T. brucei | Toxoplasma | Leishmania in macrophages |
|---|---|---|---|
| `CCC(=O)N(c1ccc(C(=O)OC)cc1C)C(C)C` | -39.82 | -7.344 | -1.232 |
| `COc1ccc(N2CCC(N(C)C(C)C(=O)N(C)C)CC2)cc1` (stereo not given) | -41.15 | -23.76 | 9.297 |
| `O=C(CCn1nc(-c2cccs2)oc1=O)Nc1cccc(F)c1` | -12.04 | 1.754 | 23.49 |
| `Cc1cc(C)c(C(=O)N2CCOC(CCN(C)C)C2)o1` (stereo not given) | -10.41 | 8.247 | 6.429 |
| `Cc1cnn(CCNCc2ccc(OCc3cscn3)cc2)c1` | 6.526 | -0.2326 | 18.1 |
| `NC(=O)c1cnc(NC2CC2)nc1CCNC(=O)Cc1ccccc1` | - | - | 23.01 |
| `CN(C)C(=O)c1cnc2n1CCN(Cc1cccc(C#N)c1)C2.O=C(O)C(F)(F)F` | 24.73 | -52.32 | -35.7 |
| `CC(=O)NC1CCN(c2nc(N)nc3c2CCCC3)C1` (stereo not given) | -30.5 | -4.747 | -2.003 |
| `CC(C)NC(=O)c1nc(Cn2c(C(F)F)nc3ccccc32)no1` | -16.51 | 4.924 | -22.55 |
| `CC(C)CN(Cc1ccc(C(F)(F)F)nc1)Cc1cnn(C)c1` | - | -5.88 | 0.7697 |
| `FC(F)(F)CCc1ccnc(N[C@H]2CC[C@H](n3cnnc3)CC2)n1` | 3.372 | -2.195 | 43.03 |
| `O=C(CN1CCC(N2CCNC2=O)CC1)NCC(F)(F)F` | -22.17 | - | 16.39 |
| `CCCc1c(C2CCOC(C)(C)C2)nc(N)c(C#N)c1-c1cnn(C)c1` (stereo not given) | -22.41 | 2.541 | 65.78 |
| `CN(Cc1ccncc1)C(=O)NC1CCCN(c2ncccn2)C1` (stereo not given) | -1.624 | -34 | 12.11 |
| `Cc1noc(C2CCN(CC(=O)N3CCNC(=O)C3)CC2)n1` | -22.3 | - | -15.33 |
| `CC(C)COC(=O)N1CC(=O)N(Cc2ccc(Cl)cc2)CC(O)C1` (stereo not given) | 13.97 | -23.89 | 4.323 |
| `Cn1cc(CC2CCN(C(=O)NCc3cccc(C(N)=O)c3)C2)cn1` (stereo not given) | - | -7.933 | 23.55 |
| `CC(NC(=O)CCc1nc(C(C)(C)C)no1)c1nnc2n1CCC2` (stereo not given) | -24.45 | 6.203 | 10.79 |
| `CN1CCN(c2cc(NC(=O)Cn3ccc4ccccc43)ncn2)CC1` | 101.2 | 13.38 | 16.51 |
| `CN(C1CCCC1)C(C)(C)C(=O)NCCS(C)(=O)=O` | 13.64 | -6.939 | 45.31 |
| `Cn1nccc1-c1ccc2nc(C3CCN(CCO)CC3)nn2c1.O=C(O)C(F)(F)F` | 39 | 2.564 | 25.73 |
| `O=S(=O)(Cc1ccccc1F)NCCN1CCOCC1` | -32.93 | -2.313 | 10.75 |
| `Cc1cc(NC(=O)NCCc2ccsc2)n(C)n1` | -1.938 | 3.896 | 3.446 |
| `COc1ccc(Cl)cc1NCC(=O)N(Cc1ccccn1)C1CC1` | -10.03 | 2.434 | 28.62 |
| `COc1ccc(Cc2nnc(NC(=O)C3CC34CCC4)s2)cc1OC` (stereo not given) | -5.469 | 16.89 | -43.17 |
| `[H][C@@]12CN(C(=O)CO)C[C@]1([H])[C@@H]2CC(=O)Nc1cccnc1` | 0.7094 | 0.028 | 18.67 |
| `CS(=O)(=O)CCCNCc1c(Cl)cccc1N1CCCC1` | 3.123 | 4.752 | -5.671 |
| `CC(=O)NCC(=O)N1CCN(CCN(C)C)c2ncccc2C1.O=C(O)C(F)(F)F.O=C(O)C(F)(F)F` | -21.66 | 13.76 | 27.08 |
| `CCOc1ccnc(N2CCN(C(=O)c3cnc[nH]3)CC2)n1` | - | -24.2 | 19.99 |
| `Cc1nc(N2CCCC2)nc2c1CCN(Cc1ccsc1)CC2.O=C(O)C(F)(F)F` | -235.2 | -5.605 | -16.19 |
| `COc1cc(C2(C(=O)NCC(=O)NC3CC3)CC2)ccc1C` | -4.064 | 1.127 | -1.463 |
| `CC(C)(C(=O)NCC(=O)NC1CC1)c1ccccc1F` | - | 15.88 | 11.84 |
| `CCOCC1CN(C(=O)N(C)C)Cc2nnn(CC3CC3)c21` (stereo not given) | -80.14 | -2.181 | 17.42 |
| `Cc1cnn(CCNCc2csc(-c3ccsc3)n2)c1` | 5.994 | -18.23 | 29.97 |
| `CC(NCc1cnn(C)c1)c1ccc(OCc2nccn2C)cc1` (stereo not given) | 4.613 | 0.4019 | 24.26 |
| `O=C(O)C(F)(F)F.O=C(O)C(F)(F)F.O=C(O)C(F)(F)F.[H][C@@]12CCN(c3ncccn3)[C@@]1([H])CCN2Cc1csc(C)n1` | -10.34 | -12.09 | -4.302 & 7.009 |
| `CCCNC(=O)CNC(=O)CCc1ccccc1Br` | -17.05 | 8.316 | 24.8 |
| `CCNc1cc2c(nn1)CCN(C(=O)Cc1ccc3c(c1)CCO3)C2` | -1.414 | 4.759 | 3.119 |
| `O=C(O)C(F)(F)F.O=C1COC2(CCN(Cc3cccs3)CC2)CN1c1ccsc1` | 3.746 | -15.64 | 19 |
| `CC(C)(NC(=O)c1ccc(-c2ccccc2F)s1)C(N)=O` | -18.54 | 0.1371 | 14.36 |
| `CCN(CC)C(=O)C1CCC(=O)N(CCc2cccc(F)c2)C1` (stereo not given) | -6.282 | 4.154 | -34.24 |
| `Cc1csc(N2CCN(CC(=O)N3CCCC3)CC2C)n1` (stereo not given) | - | -2.846 | 4.175 |
| `NC(=O)C1(c2cnccn2)CCCN1Cc1ccc(Cl)cc1` (stereo not given) | -2.932 | -17.66 | 6.073 & 1.208 |
| `CC(C)(C)c1ncc(CNc2ccccc2Cn2cncn2)s1` | -41.64 | -3.601 | 26.72 |
| `CC(C)N(Cc1ccc(C(=O)O)o1)C(C)C.Cl` | -38 | -1.124 | 18.3 |
| `CCc1cc(C(=O)N2CCC(c3cc4ncccc4cn3)CC2)on1` | -11.01 | 3.979 | 14.93 & 23.43 |
| `O=C([C@@H]1CCCN1c1nccc(Nc2ccccc2)n1)N1CCCCC1` | -34.69 | 8.309 | -25.41 |
| `Cc1cc(N2CCOC(c3ccc(C(N)=O)cn3)C2)ncn1` (stereo not given) | - | - | -0.2428 |
| `CCNC(=O)NC(=O)CNc1cccc(C(=O)c2ccccc2)c1` | 9.577 | 15 | 27.72 |
| `O=C(Cc1nc(-c2ccncc2)n[nH]1)NCCCN1CCOCC1` | -42.28 | -5.37 | 58.11 |
| `[H][C@@]12COC[C@]1(COCC(=O)N(C)C)CN(Cc1ccoc1)C2` | 0.04319 | 1.754 | 10.83 |
| `O=C1CC2(CCCC2)C(=O)N1CC(O)COCc1ccccc1F` (stereo not given) | -25.49 | 13.63 | 4.744 |
| `CCOC(=O)C1CN(S(=O)(=O)CC)Cc2ncn(CC)c21` (stereo not given) | -23.89 | 5.798 | 9.366 |
| `c1coc(CN2CCC3(CC2)COC(COCC2CCOCC2)C3)c1` (stereo not given) | 10.19 | -8.765 | 18.02 |
| `OCc1ccc(CN2CCC(n3cc(-c4ccc(F)cc4)nn3)CC2)o1` | -39.87 | -7.97 | 14.93 |
| `CCOc1ccc(C2CCCN2C(=O)NCCn2ccnc2)cc1` (stereo not given) | 5.51 | 1.095 | 10.73 |
| `O=C(COCc1ccccc1Cl)Nc1ccnn1CC1CCOC1` (stereo not given) | -12.18 | 11.66 | 5.201 |
| `O=c1cc(N2CCCCC2)cnn1Cc1noc(C2CCCO2)n1` (stereo not given) | -47.47 | -32.68 | 15.61 |
| `Cc1nc(C2CCCN2Cc2cc(Cl)c3c(c2)OCCCO3)no1` (stereo not given) | -24.03 | 0.1335 | -31.3 |
| `NC(=O)c1cccc(OCC(=O)NS(=O)(=O)c2ccc3c(c2)CCC3)c1` | -4.37 | 6.338 | 8.199 |
| `[H][C@]12CCN(C(=O)C3CCCO3)[C@@]1([H])CCC(=O)N2CCN1CCCC1` (stereo not given in full) | 33.25 | -3.467 | 11.02 |
| `Cc1cc(C)n(CC2CN(CC(=O)NC(C3CC3)C3CC3)CCO2)n1` (stereo not given) | 4.708 | -0.4354 | 18.53 |
| `N#Cc1ccc(N2CCCN(CC(=O)N3CCOCC3)CC2)cc1` | -12.03 | -9.844 | -11.38 |
| `COC(CNC(=O)c1ccc[nH]1)c1cccc(Cl)c1` (stereo not given) | -40.64 | 0.8102 | 21.46 |
| `c1ccc(-n2cnnc2CCCN2CCOCC2)cc1` | -1.867 | 6.383 | 34.47 |
| `[H][C@@]12CN(C(=O)C3CC=CC3)C[C@@]1([H])N(Cc1cccnc1)C(=O)CO2` | 38.95 | 0.1109 | 22.93 |
| `COc1cccc(C(O)CN2CCN(c3cccc(C)c3)CC2)c1` (stereo not given) | -9.939 | 5.855 | 10.08 |
| `O=C1CC(C(=O)N2CCc3sccc3C2)CN1Cc1cccnc1` (stereo not given) | -35.11 | 2.403 | -12.55 |
| `CN1CCCC1c1cncc(C(=O)NCc2ccccc2)n1` (stereo not given) | -2.573 | 1.408 | 18.05 |
| `Oc1cc(CCC2CCCCN2)cc(-c2ccncc2)c1` (stereo not given) | -39.62 | -0.7663 | 12.39 |
| `c1cnn(CCC2CCN(Cc3ccc4[nH]ccc4c3)CC2)c1` | 1.65 | 0 | -5.335 |
| `CCCc1n[nH]c(C2CN(C(=O)c3ccc[nH]3)CCO2)n1` (stereo not given) | -16.26 | -2.517 | 20.73 |
| `Cc1cc(C)n(C2CN(CC(=O)NCC(C)(C)N3CCOCC3)C2)n1` | 18.46 | -1.519 | 10.13 |
| `CC(c1ccncn1)N(C)Cc1cc2cc3c(cc2[nH]c1=O)OCO3` (stereo not given) | 25.6 | -3.097 | 0.3823 |
| `COCc1cc(N(C)CCC(O)c2ccccc2)n2nccc2n1` (stereo not given) | 30.37 | -34.43 | 10.2 |

Some entries from above, unchanged:

compound,T. brucei,Toxoplasma,Leishmania in macrophages
NC(=O)C1(c2cnccn2)CCCN1Cc1ccc(Cl)cc1 (stereo not given),-2.932,-17.66,6.073 & 1.208
CCNc1cc2c(nn1)CCN(C(=O)Cc1ccc3c(c1)CCO3)C2,-1.414,4.759,3.119
FC(F)(F)CCc1ccnc(N[C@H]2CC[C@H](n3cnnc3)CC2)n1,3.372,-2.195,43.03
COC(CNC(=O)c1ccc[nH]1)c1cccc(Cl)c1 (stereo not given),-40.64,0.8102,21.46
Cc1cnn(CCNCc2csc(-c3ccsc3)n2)c1,5.994,-18.23,29.97
[H][C@@]12COC[C@]1(COCC(=O)N(C)C)CN(Cc1ccoc1)C2,0.04319,1.754,10.83
Cc1cc(C)n(C2CN(CC(=O)NCC(C)(C)N3CCOCC3)C2)n1,18.46,-1.519,10.13
CCCNC(=O)CNC(=O)CCc1ccccc1Br,-17.05,8.316,24.8
Cc1csc(N2CCN(CC(=O)N3CCCC3)CC2C)n1 (stereo not given),-,-2.846,4.175

Source: ChEMBL document CHEMBL3988442, “University of Dundee, Small-Polar-MMV Screening Library” (2021).